This note sets out measurements from article PMC12284064.

Protein sequences, listed by entry. Tags and fused reporters are not part of them. Lines headed by an entry give the natural chain unless they say otherwise; changes in a name come on top. Residues count along the entry.
UniProt Q9BPZ7: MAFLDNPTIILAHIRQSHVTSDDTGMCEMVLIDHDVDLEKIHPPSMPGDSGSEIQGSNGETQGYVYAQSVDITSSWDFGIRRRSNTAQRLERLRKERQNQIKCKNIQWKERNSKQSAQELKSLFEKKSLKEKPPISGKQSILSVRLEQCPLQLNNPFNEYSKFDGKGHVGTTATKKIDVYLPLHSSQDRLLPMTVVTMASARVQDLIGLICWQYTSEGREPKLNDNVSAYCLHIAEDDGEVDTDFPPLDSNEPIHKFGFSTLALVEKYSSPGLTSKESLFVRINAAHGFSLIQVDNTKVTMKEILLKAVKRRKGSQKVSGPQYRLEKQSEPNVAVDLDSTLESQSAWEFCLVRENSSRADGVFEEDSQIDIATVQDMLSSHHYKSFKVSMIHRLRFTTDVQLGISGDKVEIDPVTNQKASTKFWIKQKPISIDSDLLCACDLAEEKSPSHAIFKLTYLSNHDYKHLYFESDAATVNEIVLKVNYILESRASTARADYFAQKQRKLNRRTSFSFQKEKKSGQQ
SIN1 M2 (138–266aa): residues 138-266 of Q9BPZ7

In assay [1] the target is SIN1 (Supplementary Fig. 4a, b) (UniProt Q9BPZ7). As to the kind of experiment: co-IP; USP33 and SIN1 in PANC-1 cells, with genetic ablation of CDK1 or RO-3306 (binding significantly reduced; Supplementary Fig. 4a); overexpressed USP33 WT or 2A (Supplementary Fig. 4b); method not given, legends not shown.
For assay [2], the target named is SIN1 full-length (FL), construct of the deletion mapping (UniProt Q9BPZ7). The assay is described as follows: co-IP; series of USP33 and SIN1 deletion mutants (Supplementary Fig. 1f, g); tags and cell line not shown.
Assay [3] deals with SIN1 M2 (138–266aa) (UniProt Q9BPZ7). Described as above.
Assay [4] has as its target stress-activated protein kinase-interacting protein 1 (SIN1), endogenous (human (endogenous in PANC-1)) (UniProt Q9BPZ7). As to the kind of experiment: co-IP; endogenous proteins; PANC-1 and MIA PaCa-2 lysates in NETN buffer, primary antibodies (IgG as control) with protein A/G beads overnight at 4 °C; western blot.

Results are given in words; binding and its absence hold for the method and conditions named. In cells and extracts the contact can be indirect. Some binding calls cover weakened binding; strength is not graded here.

B1: USP33 WT (Supplementary Fig. 4a, b) (enzyme, UniProt Q8TEY7 1-942)
chain: MTGSNSHITILTLKVLPHFESLGKQEKIPNKMSAFRNHCPHLDSVGEITKEDLIQKSLGTCQDCKVQGPNLWACLENRCSYVGCGESQVDHSTIHSQETKHYLTVNLTTLRVWCYACSKEVFLDRKLGTQPSLPHVRQPHQIQENSVQDFKIPSNTTLKTPLVAVFDDLDIEADEEDELRARGLTGLKNIGNTCYMNAALQALSNCPPLTQFFLDCGGLARTDKKPAICKSYLKLMTELWHKSRPGSVVPTTLFQGIKTVNPTFRGYSQQDAQEFLRCLMDLLHEELKEQVMEVEEDPQTITTEETMEEDKSQSDVDFQSCESCSNSDRAENENGSRCFSEDNNETTMLIQDDENNSEMSKDWQKEKMCNKINKVNSEGEFDKDRDSISETVDLNNQETVKVQIHSRASEYITDVHSNDLSTPQILPSNEGVNPRLSASPPKSGNLWPGLAPPHKKAQSASPKRKKQHKKYRSVISDIFDGTIISSVQCLTCDRVSVTLETFQDLSLPIPGKEDLAKLHSSSHPTSIVKAGSCGEAYAPQGWIAFFMEYVKRFVVSCVPSWFWGPVVTLQDCLAAFFARDELKGDNMYSCEKCKKLRNGVKFCKVQNFPEILCIHLKRFRHELMFSTKISTHVSFPLEGLDLQPFLAKDSPAQIVTYDLLSVICHHGTASSGHYIAYCRNNLNNLWYEFDDQSVTEVSESTVQNAEAYVLFYRKSSEEAQKERRRISNLLNIMEPSLLQFYISRQWLNKFKTFAEPGPISNNDFLCIHGGVPPRKAGYIEDLVLMLPQNIWDNLYSRYGGGPAVNHLYICHTCQIEAEKIEKRRKTELEIFIRLNRAFQKEDSPATFYCISMQWFREWESFVKGKDGDPPGPIDNTKIAVTKCGNVMLRQGADSGQISEETWNFLQSIYGGGPEVILRPPVVHVDPDILQAEEKIEVETRSL
For B1, the binding entry in assay [1] is given as “binds”.

B2: USP33 full-length (FL), construct of the deletion mapping (enzyme, UniProt Q8TEY7 1-942)
chain: B1 chain
For the molecule B2, the binding entry in assay [2] and in assay [3] was “binds” in each case.

B3: ubiquitin-specific protease 33 (USP33), endogenous (enzyme, UniProt Q8TEY7 1-942)
chain: B1 chain
With B3, the binding entry in assay [4] is recorded as “binds”.

B4: USP33 M4 (717–942aa) (domain or fragment, UniProt Q8TEY7 717-942)
chain: EEAQKERRRISNLLNIMEPSLLQFYISRQWLNKFKTFAEPGPISNNDFLCIHGGVPPRKAGYIEDLVLMLPQNIWDNLYSRYGGGPAVNHLYICHTCQIEAEKIEKRRKTELEIFIRLNRAFQKEDSPATFYCISMQWFREWESFVKGKDGDPPGPIDNTKIAVTKCGNVMLRQGADSGQISEETWNFLQSIYGGGPEVILRPPVVHVDPDILQAEEKIEVETRSL
As to B4, the binding entry in assay [2] is recorded as “binds”.

B5: USP33 M5 (811–942aa) (domain or fragment, UniProt Q8TEY7 811-942)
chain: HTCQIEAEKIEKRRKTELEIFIRLNRAFQKEDSPATFYCISMQWFREWESFVKGKDGDPPGPIDNTKIAVTKCGNVMLRQGADSGQISEETWNFLQSIYGGGPEVILRPPVVHVDPDILQAEEKIEVETRSL
In the case of B5, the binding entry in assay [2] is given as “binds”.
